For one molecule, binding results are on record in paper PMC8370389.

For the assay, the target named is Scavenger receptor SCAV-5 (C. elegans). Put plainly: two-hybrid; split-ubiquitin membrane yeast two-hybrid (MYTH); SCAV-5 in pMetYCgate, TIR-1 in pNubXgate32-HA; yeast strain AP4; dilutions 10^-1 to 10^-3 dropped onto SD-Trp-Leu-His-Ade medium; 30°C for 3 days.

Results are given in words; binding and its absence hold for the method and conditions named.

B1: TIR-1 (protein, UniProt Q86DA5 1-981)
chain: MLPNRKPPRPSPSFQSLNNNNQRFPLRRSLKIAQAHSLPTVPSEDAKDDDLITPELSTDFDFREIQHRYLMALQNEQDGETTSTDDAFFELDDDDDLSSPSVPGSPVDPPSISVPLPPKSAPPCPTQPAPLTNGDLYPTILSNGTPIPNGRITPALSTVSVSLIHEARLQQSLSTPCNGSEEEMHNGQVRKESEYRRFKSEGSTAGASLPAAEKTHMDELSPVDQRSTSGTARFLIQQDSVVNPSTKMSNTEQVAMMHTLKTKLSKYQAMMDKAFEEIAKVEDANIIEGCTIVRKLMRKVWNTPKVSADLANALCDYLRDRDYFDKLIKMFISPNTAACDQVRMECGKVLEECTSSANLEYIVNKSYTKKIMIVAMKLNKTPDQQRLSLSLIGNLFKHSNAVSLSLIETDVIDHIILTFKRAPECPDILRHAALALANILLYTCFEGKKKIIQKKIPEWLFFLASQADDVTRYYACIAVCTIVSVKEFEPLVRKSDTMKLVEPFLQVHDPATFARDYHKYAQGNTKEWLERLLPMLQPSRRREARSVAAFHFTLEATIKKEQNKLDVFQEIGAIQALKEVASSPDEVAAKFASEALTVIGEEVPYKLAQQVPGWTCADVQYWVKKIGFEEYVEKFAKQMVDGDLLLQLTENDLKHDVGMISGLHRKRFLRELQTLKVAADYSSVDESNLDNFLMGLSPELSVYTYQMLTNGVNRSLLSSLTDEMMQNACGITNPIHRLKLTQAFETAKHPDDVEVAMLSKQIDVFISYRRSTGNQLASLIKVLLQLRGYRVFIDVDKLYAGKFDSSLLKNIQAAKHFILVLTPNSLDRLLNDDNCEDWVHKELKCAFEHQKNIIPIFDTAFEFPTKEDQIPNDIRMITKYNGVKWVHDYQDACMAKVVRFITGELNRTTPTTKEMPSISRKTTQQRWQTTNTVSRTGPSRSIGGPRMEPPTPTFTPTGSQERATSTRRKIQPSASTTSDRN
Turning to B1, the binding result is on record as “no binding”.
